Results published in patent publication US5994041A, “Process for buffering concentrated aqueous slurries” (priority 1998, dated 1999).
At least one read-out could not be matched to a standard name with certainty.

Legend:
[1] = Electroacoustic sonic amplitude (ESA) as a function of pH; format: physicochemical; conditions: FIG. 2, FD1 slurries without dispersing aid
[2] = slurry without surfactant; Texter, Langmuir, 8, 291 (1992); cited from earlier work

| Structure (SMILES) | lowest apparent pKa [1] | predominately carboxy group-based surface pKa [2] |
| --- | --- | --- |
| CC1=NN(c2ccc(C(=O)O)cc2)C(=O)C1=CC=Cc1c(C)nn(-c2ccc(C(=O)O)cc2)c1O [FD1] | about 2 | – |
| CC1=NN(c2ccc(C(=O)O)cc2)C(=O)C1=Cc1c(C)nn(-c2ccc(C(=O)O)cc2)c1O [FD2] | – | about 5.0 |
